A negative result means that nothing was seen under these conditions. Protein sequences can lack the tags named with them. Weaker means in comparison with the reference protein, sequence or condition of that experiment.
Molecular target: T1, Clr (Sinorhizobium meliloti) (UniProt Q92SD2)
T1 sequence (looked up): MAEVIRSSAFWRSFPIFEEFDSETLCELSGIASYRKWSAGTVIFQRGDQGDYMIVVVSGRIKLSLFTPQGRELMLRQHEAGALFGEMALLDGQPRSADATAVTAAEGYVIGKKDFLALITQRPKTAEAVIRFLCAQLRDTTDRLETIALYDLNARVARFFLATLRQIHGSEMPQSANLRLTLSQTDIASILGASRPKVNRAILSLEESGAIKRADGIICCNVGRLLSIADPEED
Test: EMSA
Conditions: 1 mM cAMP, EMSA: 2 mM HEPES pH 7.0, 30 mM NaCl, 50 mM KCl, 850 ng salmon sperm DNA, 1 ug BSA, 20 ng Cy3-DNA, 3 ug Clr in 10 uL, room temperature, recombinant protein, residues 1-234, protein details: C-terminal His6 (pET36b, NdeI/XhoI), label: 5'-Cy3 on reverse strand

Sequence | binding result
AGCGGATAACAATTTCACACAGGAAACAGCATATGACCATGATTACGCCAAGCTCGAAATTAACCCTCACTAAAGGGAACAAAAGCTGGAGCTCTTAAGCTTCTCAACAGGGCTGGACAGAAGCTGCAGTCGGCACGAATTCTCGCCGAAGCCGCTGGGAATGGCCATGCTCTGGCAATGGCCAGCTATGCCGATCTCCTTGCCGAGCGCGGCATGGCCGGTACGTCCTCCGGCGATTTGCTGACGGCCCGGCGCTTCGCGCAGGCGACCACGGACGGATTGCAGTGATGAGGGCGGCGGACCGGTCTTCCGCATAGGTCCGACCCGCCCGAAAATGCCGCTTGACGCCTGCGAGCAGGCGCAGGAGCGTGACCCGCGAGACATCAACGCGGGACGCACATGACGAAGCTCTCTAGACTGCAGATGGTGAGCAAGGGCGAGGAGCTGTTCA (double strand) [SMc02179] | binds more weakly
AGCGGATAACAATTTCACACAGGAAACAGCATATGACCATGATTACGCCAAGCTCGAAATTAACCCTCACTAAAGGGAACAAAAGCTGGAGCTCTTAAGCTTCTGCCCGATTTTGGCCACAAGATACAATCGACAGTATTAATTGCGAAGGAACAATACATCCAATAATCTGGTTCTGATCTGTTTCTTCTATCGGTTATATTAACGATCTCTCTTTCACTCGACGATTGTGCACGTGATTTGCTACAAGCCTCGGACCGCTGCCGCATGTAGCAATGGCAACGCAAAACGGGTTAAAAGGGATCAAACGAGAGCTGACGAGACATGATGGAATCGGTGCAAACTGACGGGAAGAGGGGAGAAAACAGGTACTTCAAGGCGCCTGTCTTTGCCGTGGCGCCTATGATCGACTGGACCGATCGTTCTAGACTGCAGATGGTGAGCAAGGGCGAGGAGCTGTTCA (double strand) [SMc04235 / SMc04236] | binds more weakly
AGCGGATAACAATTTCACACAGGAAACAGCATATGACCATGATTACGCCAAGCTCGAAATTAACCCTCACTAAAGGGAACAAAAGCTGGAGCTCTTAAGCTTCTGGACTGAAGTCAGTGCCATTCTCGATATCGTTGATTTCGACGACGGCGAGGCCGCAGGTGACCGCGAGATCCTCGATGCTGTAGCCGACCGCTTCACGCGCGGCCTTGACGCGAGCGGCGATGTCGCCGTTGGGCATCGGAGCGGCTTCCTTGTCGCCAATGTTGGAGGGTGAAATAGACATAAATGTCTCCTTCTCTTGGCATGAAAATTCTTACGAATTTTGCTGTTGAGTACGGGTCGACACGCGTCACTGCATGCCCCCTGAACCGCGATTCAAGGGAAAAAACATGCAGCAGATGAAAGTGCTGCAGCGACCTTTGTGCGCGTGAGACGCGCGGTGCTGCAGGACGGCGGTAACGTTTTATGTCATCGTTGTAACATGGACAAGCCGAAATCGCTCTTGTGCACCGGAAGCGGCAGTCGGCTACTGGAATGTCGGTTCTAGACTGCAGATGGTGAGCAAGGGCGAGGAGCTGTTCA (double strand) [exsI / SMb20936] | binds more weakly
AGCGGATAACAATTTCACACAGGAAACAGCATATGACCATGATTACGCCAAGCTCGAAATTAACCCTCACTAAAGGGAACAAAAGCTGGAGCTCTTAAGCTTCTTCTGGGACGGCTTTTCGTAGAAGTCACGCATCTTCATTTCGCGGAAAATGCCTTCGCGCTGCATCTTTTTCTTAAGAGCGCGGAGCGCCTGATCGACATTGTTATCGCGGACAAGTACCTGCACGTGAATCCCGTTCCTTTGCTTCGAGTTGGTAAGCCTCACCATCAGGTTTGGAGAGGCAATAAATTTGCGTTCGCTGGGCGAGAACCCTACGATTAGAAGAGCGGATAACAGATCGCGTGCCGAAAGTCCAGCGGCGAGAGAGCGCGCGTGGGGAAAAAGCGCCGATGGCTCTGCGGCGGCGGCCGTCGATGTCGCAAGACCGCGCAAGTCCGCCGGATCGCGTCGCAAAAGAAACGTTGCGTGGTCCTCGGATTTGCGATTTCTAACGCCAACGAACGTTACCGGGTTCATGGAGTAGCAGGCGGATGCGCAAATATTCTGTTTTTGCCGTGGCGCGCTCTAGACTGCAGATGGTGAGCAAGGGCGAGGAGCTGTTCA (double strand) [rpsU2 / soxB2] | no binding
AGCGGATAACAATTTCACACAGGAAACAGCATATGACCATGATTACGCCAAGCTCGAAATTAACCCTCACTAAAGGGAACAAAAGCTGGAGCTCTTAAGCTTGAAGCGATCGTCTTCACCGCTCGCGTCGTAGCGCCCGAAACGGTGAGCGCCTGAGGCGGGACCAAGCGCGGCTTTCGGCAAATCTGGCCGATTTCCATCGTCTCATTGCTCCGGTGACGGGAGGACTCATGCGCCCTCCCGTATGCTTCACGACCGCATCCCTCCGACCGACCGGAAGCGCCGGCGGTTTTCAGCGCGGCGGGTGATGCCGCGTCACCGCGGTAACTGTTTCTTTGCCAAATCCGTATAGGATTGCTTCATGGAGATGGTTTCGCGTGTGGCGGAGCGGGAAGGAGATGGACGTGCGGCGCTTGATGATTGCTGACGGATCTAGACTGCAGATGGTGAGCAAGGGCGAGGAGCTGTTCA (double strand) [SMc00653] | binds
AGCGGATAACAATTTCACACAGGAAACAGCATATGACCATGATTACGCCAAGCTCGAAATTAACCCTCACTAAAGGGAACAAAAGCTGGAGCTCTTAAGCTTGAAGGCTGCAGCAAAGCCATCGGCGATTGTTGCAGAGAGATCGCGAGGTCCGAAGCCAGCCGCCGCTGGACGGCGGACCCCGCGAGTGGCCCCGGAGCGGCGTCCCAGTAGTCCCTTCGGGCAGCGCCGCTCTGGGGCTTCGCCGAACCGCTGGGTCGCGCCGGCAACTCGCCTGCCGTCACGGTATATTTCACTCAGGTAACGTAACGTTACTGTATCCGATTGATAGTCCTACAGTAAAAACAGGAACAAATCACGAAGTACATCGTTCTTCCATCGTATATCAAGGGAGTACGACAGATGAACGCCAAGCTAGACTGCAGATGGTGAGCAAGGGCGAGGAGCTGTTCA (double strand) [SMc00254] | no binding
AGCGGATAACAATTTCACACAGGAAACAGCATATGACCATGATTACGCCAAGCTCGAAATTAACCCTCACTAAAGGGAACAAAAGCTGGAGCTCTTAAGCTTGACCAACCTTTTCCCAGAGGTAATAAGAACCTGCCGTGTTGGGATGGTACGGAAGTACATCGGTGCAGATGCTCTCCGTGCGTGGACTTGAGGACAGGCCAAAGACTTACAGCTCCGGCGCGAAACGTCGCGTCGACCGGGCGTGAGCACCCAGTGGTGCGCGGTTGCCTGGGCTGAGGCGACGCCAAGGTTGGTCCCTGTTACTTCCGGAACTGCCGCAGTGGCTTACTCCGGGTATTCAGTAACAACGGGATTGCGCGTGCGGGCGGAACGAGGACGGCGCGCGCGGGACGAGCCTTTGCTGCCACATCCCGAACAACGAGGCGGTGACTCTGTCGCAGCCGCCGCATTGGCGAGTGTCCACCGAAAGGCCGGCACTCAGACCAAGAGGGAAGCACCATGTCTAAGACGTCCTTCAACATCAATCCGTCGGCCATTCTGACCACGGCGCTAGGCACAGCCTTCTTGAGCTGCGCGGCACAGGTGGCCGGGGCAATCCACCGGCGCCGGCAAAGCGGTCGTGCACGCGGGTGCACTCTGCAGGAAATGCCGGATTACATCCTCAAGGACATCGGCGTGACGCGCTTCGAAATTGAATACCTCGTCAAATCTGGACGAGCCTGCAGATGGCGCCAGAGCGAGTGAAGCGGCCGAATGCCACCGTCTCTGTCAGATCGAACCATTGAGAATGACAATGAGAGTGACCATGAAAATGCACCTTCTCTCCAGCGCTCTAGACTGCAGATGGTGAGCAAGGGCGAGGAGCTGTTCA (double strand) [SMb20495] | binds
AGCGGATAACAATTTCACACAGGAAACAGCATATGACCATGATTACGCCAAGCTCGAAATTAACCCTCACTAAAGGGAACAAAAGCTGGAGCTCTTAAGCTTGACGAGGGTGTGATGGCATGTCGTTCATGGCTCCGCTGTAGCAGTGTGCTGTAGCAAACGGAACTGTAAGTCGTTGATTTTGTGCTAAGTCCTTGCGATTAAACAAGGAAAAATGGTGCTGCTAGAGAGATTTGAACTCTCGGCCTCTCCCTTACCAAGGGAGTGCTCTACCCCTGAGCTATAGCAGCATCCGGCGGCACTTCGTGGCAAGCCGCATCAGGCGAGGGGCCTATTGCCATAGCTTGAGGGAGAGCGCAAGCCGCATTTCGAAGTTTTTGGGCGGGCCGCGCCGGGAAGATGGCGGGCTCACACGGTCCAGGGCGCTCAAGCTCTTCCATTGCAGCCTTTTGCGGCACGGACCGGCCCGGAAGCCGCTTCGCGGTTTTCCCCGATTTCGCTCTCACCTGGCCGGCTTGCCGCTTCCGAAGGCCCTGGTTTTGCGGTAATGGATGGCCATGCAGAGCGACGACTCTAGACTGCAGATGGTGAGCAAGGGCGAGGAGCTGTTCA (double strand) [SMc02304] | binds
AGCGGATAACAATTTCACACAGGAAACAGCATATGACCATGATTACGCCAAGCTCGAAATTAACCCTCACTAAAGGGAACAAAAGCTGGAGCTCTTAAGCTTGATCGCGGACGCGGTGAACCCAGCCGGAAAGGCGAACGGTGGAGCCGACATCCGACTTGCGGAGGGCGGCACAGGTGTGGCTGCGGTAACGGTGCATCGTATAGTCCCGGAATTGCTTAAAGGCCGCGCAGCTCGCAGAACGGCGCAGGGCGGCATGGTCAAAGTCGGGCGGAAAAGCGCATGATGCGCCGGTTTTGTCAAGGCCGCGGCGGCGCCGGCGGCAAGAGCGCTGCCCCGGTCGCACAAGTTGCCCGCTTCGACCACAGCCGCAAGCGGTACGGCGCAAATTTGGACACGAGTGGTCACAAATTGCTACTGTTCCCGCGCGTCAGCCACGGTTAAACAGGGGCAAGGGTCGCGTATCGCGCGAGTCGCGGCCGCAATCGGATGCCTTCTGTTCCATGTCCCAGATTCGCCCGCTCTCTAGACTGCAGATGGTGAGCAAGGGCGAGGAGCTGTTCA (double strand) [aspS / SMc01755] | binds more weakly
AGCGGATAACAATTTCACACAGGAAACAGCATATGACCATGATTACGCCAAGCTCGAAATTAACCCTCACTAAAGGGAACAAAAGCTGGAGCTCTTAAGCTTGATGCAAAGAATCCGGCGATGGCGGCGGCCTTCGTAAACTACATTCTCAGTTCGGAGGTCCAGGTTGCTTTCGCGACACGGAATCTCTACGCGCCGACGGTAAAGAATGCCGAAATACCCGATGATTTTGAGTTCCGGGATCTGCTTGTGCTGAACGATGCATTCGGCCGTCTCTACCTGCCGGATCAGGAGAAGATCACTGCCAACAAAGCGGGTTGGCAGCAGCAGCTGAACCAGAAGGCTATGCGCTAAGCAAGCGGCCGTGGTGCACGCACGATCGAGCGCCACGGCTAACCTTGTGAGCCGGGCCTTTCGGCAAGGCGCGTTCCCGGCGGAACTGCCAGAACAGGAACAATGCAACCATGTCCAATGATTCAATTCAGGTCGAGGGAATCACAAAGCGCTATGGCGCGATGACGGCCGTCGACAATGTATCCTTCGATGTTGGCCAGGGGGAGTTCGTGTCGCTGCTCGGCCCGAGCGGTTGTGGAAAGACCACGTCTAGACTGCAGATGGTGAGCAAGGGCGAGGAGCTGTTCA (double strand) [SMa2207] | binds

— PMC10127613 (mBio, 2023)
